Data reported in paper PMC6683005.
Results are given in words; binding and its absence hold for the method and conditions named. Binding seen in cells or lysates may run through a third protein. These calls come from enrichment with a bait or labelling near it, and not all partners need be listed.

Chains of the proteins cited; added tags and fusions are not shown. Lines headed by an entry give the natural chain unless they say otherwise; changes in a name come on top.
UniProt Q9FX54: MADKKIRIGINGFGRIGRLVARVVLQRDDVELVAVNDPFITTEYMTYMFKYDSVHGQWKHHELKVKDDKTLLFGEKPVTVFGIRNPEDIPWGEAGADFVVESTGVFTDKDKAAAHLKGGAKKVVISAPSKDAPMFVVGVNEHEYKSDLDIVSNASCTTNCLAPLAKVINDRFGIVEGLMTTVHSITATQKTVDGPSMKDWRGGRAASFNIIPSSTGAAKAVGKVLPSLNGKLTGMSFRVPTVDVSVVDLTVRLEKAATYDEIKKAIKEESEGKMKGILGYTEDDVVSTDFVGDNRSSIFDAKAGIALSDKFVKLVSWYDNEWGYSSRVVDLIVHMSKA

Target: YFP-tagged Glyceraldehyde-3-phosphate-dehydrogenase (GAPC) (Arabidopsis thaliana) (UniProt Q9FX54)
Experiment: affinity purification with mass spectrometry; YFP-GAPC2 pulled down with GFP-Trap from soluble Arabidopsis leaf proteins; 150 mM NaCl, 20 mM HEPES pH 7.2, 1% NP-40, overnight at 4 °C; three replicates, no antibody control; eluted proteins analysed by LC-MS/MS

| binding | Substance |
| --- | --- |
| binds | ACTIN 2 (from UniProt Q96292 1-377) |
| binds | ACTIN 7 (from UniProt P53492 1-377) |
